Results: patent US20250275993A1, “GLYCOSYLATION INHIBITORS AS THERAPEUTICS FOR STROKE” (The Regents of the University of California, priority 2022, published 2025)
At least one structure is not confirmed: it was looked up by name or label, or the drawing left a doubt.

System: bovine choroidal microvascular endothelial cells (BCEC)
Assay: BCEC proliferation assay (AlamarBlue / crystal violet)
Type: cell-based
Protocol: The effect of ManN on EC proliferation was assessed.
AlamarBlue detects mitochondria activity as an indication of cell viability which correlates with cell number at certain ranges.
Proliferation assays with BCECs and BRECs were performed. Log-phase growing BCECs or BRECs (passage <10) were trypsinized, re-suspended and seeded in 96-well plates (no coating) in low-glucose DMEM supplemented with 10% bovine calf serum, 2 mM glutamine, and antibiotics (growth medium), at a density of 1200-1500 cells per well in 200 μl volume. All reagents were added at the indicated final concentrations. After 3-6 days, cells were incubated with AlamarBlue for 4 hrs. Fluorescence was measured at 530 nm excitation wavelength and 590 nm emission wavelength. The experiments were repeated at least three times. […] 20% methanol or 0.05% DMSO served as negative controls. […] Human RMVECs and human adult DMVECs were split into Gelatin-coated 96 wells (2000 cells per well) in low glucose DMEM containing 10% FBS. 1200 cells/well was set up for proliferation assay in low glucose media containing 0.5% FBS. Data was collected at day 4 or 5. […]
On the day of the assay, cells were dissociated with 0.05% trypsin, which was neutralized with 0.5% FBS-containing EBM. […] Cells were counted and plated in 96-well, 1000 cells/well. […] Cell-covered areas were quantified after taking pictures by Image J software.

SMILES: Oc1c2ccccc2c2c3c(cccc13)N=N2 [SP600125]
- effect of JNK inhibitor on glycosylation-inhibitor-stimulated BCEC proliferation (5 μM SP 600125): significantly reduced the effects of both glycosylation inhibitors on proliferation of BCECs
- effect of JNK inhibitor on ManN-stimulated BCEC proliferation (SP600125 5 μM): abolished the effects of ManN on BCEC proliferation
